# PubChem BioAssay AID504808 – Drosophila RNAi Screening Center | 2011
# Test: 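Fly genes required to hold E2F transcription in check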 (primary screen)
# Cell system: Drosophila S2 cells
# Knock-down reagent: long dsRNA against Drosophila genes
# Measurement: 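Firefly luciferase driven by E2F sites, normalised to Renilla luciferase on the same minimal promoter, measured by plate reader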
# Scale: E2F firefly: higher = more E2F reporter activity; Renilla normaliser: higher = more normaliser reporter signal
# Active means: 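Called active if the normalised E2F reporter went up by over 50%; the cutoff is arbitrary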
# The deposit covers about 21,000 reagents; this is a random part of those with a known target gene and a result. Of all reagents, 18 (0.084%) were called active. 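Raw counts without plate normalisation, one of two replicates; the ratio scores behind the calls were not deposited.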 A plus sign joins genes that one reagent is predicted to hit. The record does not give: the amount of reagent, the time to read-out.
target gene,dsRNA,"E2F firefly, rep 1","Renilla normaliser, rep 1",activity call
CG1344,DRSC04837,71449,2977,inactive
Nmdar2,DRSC18183,1.37e5,5926,inactive
Nmdar2,DRSC18511,1.18e5,5540,inactive
Nmdar2,DRSC18569,1.27e5,5627,inactive
CG12862,DRSC06202,96882,4276,inactive
Mnt,DRSC17894,1583,828,inactive
Mnt,DRSC18480,83448,4993,inactive
CG15706,DRSC06577,1.49e5,5253,inactive
CG32986,DRSC02509,1.47e5,4971,inactive
apt,DRSC04671,78510,3639,inactive
CG4955,DRSC19927,1.57e5,5784,inactive
zetaCOP,DRSC11412,1.06e5,8755,inactive
Shaw,DRSC00433,1.44e5,5555,inactive
Shaw,DRSC00788,1.39e5,4726,inactive
CG30412,DRSC04564,83154,3462,inactive
CG6178,DRSC15984,80461,4694,inactive
CG5050,DRSC02807,1.11e5,5071,inactive
CG10341,DRSC02040,75963,3219,inactive
CG14767,DRSC06500,2976,200,inactive
CG17738,DRSC15257,1.52e5,6346,inactive
Rpt2,DRSC16799,55734,4392,inactive
CG11147,DRSC02129,1.41e5,5212,inactive
CG15152,DRSC02453,1.01e5,4282,inactive
CG12898,DRSC06213,1.53e5,4972,inactive
ouib,DRSC14376,1.30e5,6668,inactive
CG15423,DRSC00437,1.42e5,4991,inactive
Cenp-C,DRSC14371,1.31e5,8253,inactive
CHKov1,DRSC01566,1.37e5,5732,inactive
CHKov1,DRSC01696,1.27e5,5669,inactive
CHKov1,DRSC14258,1.14e5,5591,inactive
CHKov1,DRSC20937,79133,2735,inactive
Gbs-70E,DRSC11055,1.62e5,7400,inactive
nompC,DRSC03581,1.50e5,5149,inactive
Lcp65Af,DRSC11213,1.03e5,3863,inactive
CG32055,DRSC10666,89929,3703,inactive
CG34056,DRSC08374,1.03e5,3927,inactive
Lkb1,DRSC16481,72333,3170,inactive
EbpIII,DRSC04638,1.09e5,4787,inactive
CtsB,DRSC19361,8102,788,inactive
nub,DRSC01260,1.34e5,5546,inactive
nub,DRSC02498,93713,3737,inactive
nub,DRSC02499,1.05e5,4670,inactive
nub,DRSC03583,87819,4943,inactive
CG11414,DRSC04110,85980,3585,inactive
CG6337,DRSC06977,98239,4288,inactive
CG14879,DRSC15003,1.20e5,6071,inactive
Cpr30F,DRSC02908,79525,3993,inactive
AlaRS,DRSC01851,99996,3623,inactive
CG1812,DRSC20557,1.91e5,6292,inactive
Tsp29Fb,DRSC03233,1.30e5,4874,inactive
CG12691,DRSC17880,1.10e5,5127,inactive
barr,DRSC03488,1.07e5,4898,inactive
Nsun2,DRSC18662,1883,804,inactive
PpD5,DRSC04641,1.05e5,4942,inactive

Continued (11 carried over from the part before).
target gene,dsRNA,"E2F firefly, rep 1","Renilla normaliser, rep 1",activity call
CG11414,DRSC04110,85980,3585,inactive
CG6337,DRSC06977,98239,4288,inactive
CG14879,DRSC15003,1.20e5,6071,inactive
Cpr30F,DRSC02908,79525,3993,inactive
AlaRS,DRSC01851,99996,3623,inactive
CG1812,DRSC20557,1.91e5,6292,inactive
Tsp29Fb,DRSC03233,1.30e5,4874,inactive
CG12691,DRSC17880,1.10e5,5127,inactive
barr,DRSC03488,1.07e5,4898,inactive
Nsun2,DRSC18662,1883,804,inactive
PpD5,DRSC04641,1.05e5,4942,inactive
CG4853,DRSC06898,85341,4273,inactive
Cpr78Cb,DRSC11847,1.34e5,6454,inactive
Argk2,DRSC10483,92100,3812,inactive
Msh6,DRSC10759,1.64e5,7627,inactive
CG14615,DRSC20627,1.40e5,6238,inactive
CG11300,DRSC04104,1.02e5,4095,inactive
igl,DRSC07631,72644,3501,inactive
CG4025,DRSC18523,1.27e5,6073,inactive
Tango4,DRSC19786,4987,832,inactive
AP-2mu,DRSC14090,59934,3073,inactive
nkd,DRSC11376,1.25e5,5966,inactive
mthl1,DRSC19905,2.45e5,7637,inactive
CG15711,DRSC06582,1.41e5,5248,inactive
CG16826,DRSC02527,95117,3522,inactive
btv,DRSC01615,1.28e5,5627,inactive
btv,DRSC02449,1.00e5,4462,inactive
CG9175,DRSC03153,90026,3885,inactive
ppk18,DRSC02216,1.36e5,4878,inactive
janA,DRSC16972,99738,5540,inactive
CG13380 + CG4174,DRSC09988,63993,3774,inactive
CG13380 + CG4174,DRSC10406,1.63e5,7435,inactive
CG8298,DRSC07138,1.03e5,4427,inactive
CG14397,DRSC02381,1.09e5,4435,inactive
CG9259,DRSC03174,90753,3989,inactive
Ndf,DRSC02775,70034,3333,inactive
CG5335,DRSC06931,82088,3676,inactive
Srp54,DRSC03442,74680,3586,inactive
CG8405,DRSC05599,1.34e5,6296,inactive
CG8405,DRSC07166,1.49e5,5345,inactive
Dhps,DRSC10948,84569,3564,inactive
